Reference: publication PMC4447969
Results are given in words; binding and its absence hold for the method and conditions named. In cells and extracts the contact can be indirect. Here binding means that the protein was enriched with, or labelled near, the bait; the list need not be complete. Where a sequence is shown, tags or fusion partners need not be part of it.

Sequences of proteins named here, by UniProt entry; tags and fusion partners are left off. Residues count along the entry.
UniProt P61201: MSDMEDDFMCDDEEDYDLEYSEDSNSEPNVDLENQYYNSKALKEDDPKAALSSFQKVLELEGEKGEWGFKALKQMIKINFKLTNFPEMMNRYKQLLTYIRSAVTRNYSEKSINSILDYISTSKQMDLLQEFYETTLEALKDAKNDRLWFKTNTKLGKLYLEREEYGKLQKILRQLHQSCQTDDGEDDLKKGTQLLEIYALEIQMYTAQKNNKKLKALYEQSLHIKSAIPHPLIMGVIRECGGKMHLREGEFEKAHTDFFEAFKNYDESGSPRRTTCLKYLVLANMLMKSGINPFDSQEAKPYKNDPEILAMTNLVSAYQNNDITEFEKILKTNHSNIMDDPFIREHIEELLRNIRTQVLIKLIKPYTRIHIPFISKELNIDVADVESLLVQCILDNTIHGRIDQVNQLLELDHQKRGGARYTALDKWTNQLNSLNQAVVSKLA
UniProt Q9UNS2, residues 21-423: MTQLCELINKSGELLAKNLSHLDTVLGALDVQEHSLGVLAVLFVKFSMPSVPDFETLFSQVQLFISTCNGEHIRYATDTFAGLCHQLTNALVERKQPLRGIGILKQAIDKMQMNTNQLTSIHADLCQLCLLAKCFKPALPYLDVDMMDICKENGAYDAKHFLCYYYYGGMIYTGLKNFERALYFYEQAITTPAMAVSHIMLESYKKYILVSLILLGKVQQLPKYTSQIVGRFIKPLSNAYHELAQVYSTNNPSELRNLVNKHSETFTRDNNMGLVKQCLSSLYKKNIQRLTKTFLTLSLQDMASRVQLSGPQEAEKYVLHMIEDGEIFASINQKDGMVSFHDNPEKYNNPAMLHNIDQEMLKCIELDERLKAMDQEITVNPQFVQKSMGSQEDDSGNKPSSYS
UniProt Q86VP6: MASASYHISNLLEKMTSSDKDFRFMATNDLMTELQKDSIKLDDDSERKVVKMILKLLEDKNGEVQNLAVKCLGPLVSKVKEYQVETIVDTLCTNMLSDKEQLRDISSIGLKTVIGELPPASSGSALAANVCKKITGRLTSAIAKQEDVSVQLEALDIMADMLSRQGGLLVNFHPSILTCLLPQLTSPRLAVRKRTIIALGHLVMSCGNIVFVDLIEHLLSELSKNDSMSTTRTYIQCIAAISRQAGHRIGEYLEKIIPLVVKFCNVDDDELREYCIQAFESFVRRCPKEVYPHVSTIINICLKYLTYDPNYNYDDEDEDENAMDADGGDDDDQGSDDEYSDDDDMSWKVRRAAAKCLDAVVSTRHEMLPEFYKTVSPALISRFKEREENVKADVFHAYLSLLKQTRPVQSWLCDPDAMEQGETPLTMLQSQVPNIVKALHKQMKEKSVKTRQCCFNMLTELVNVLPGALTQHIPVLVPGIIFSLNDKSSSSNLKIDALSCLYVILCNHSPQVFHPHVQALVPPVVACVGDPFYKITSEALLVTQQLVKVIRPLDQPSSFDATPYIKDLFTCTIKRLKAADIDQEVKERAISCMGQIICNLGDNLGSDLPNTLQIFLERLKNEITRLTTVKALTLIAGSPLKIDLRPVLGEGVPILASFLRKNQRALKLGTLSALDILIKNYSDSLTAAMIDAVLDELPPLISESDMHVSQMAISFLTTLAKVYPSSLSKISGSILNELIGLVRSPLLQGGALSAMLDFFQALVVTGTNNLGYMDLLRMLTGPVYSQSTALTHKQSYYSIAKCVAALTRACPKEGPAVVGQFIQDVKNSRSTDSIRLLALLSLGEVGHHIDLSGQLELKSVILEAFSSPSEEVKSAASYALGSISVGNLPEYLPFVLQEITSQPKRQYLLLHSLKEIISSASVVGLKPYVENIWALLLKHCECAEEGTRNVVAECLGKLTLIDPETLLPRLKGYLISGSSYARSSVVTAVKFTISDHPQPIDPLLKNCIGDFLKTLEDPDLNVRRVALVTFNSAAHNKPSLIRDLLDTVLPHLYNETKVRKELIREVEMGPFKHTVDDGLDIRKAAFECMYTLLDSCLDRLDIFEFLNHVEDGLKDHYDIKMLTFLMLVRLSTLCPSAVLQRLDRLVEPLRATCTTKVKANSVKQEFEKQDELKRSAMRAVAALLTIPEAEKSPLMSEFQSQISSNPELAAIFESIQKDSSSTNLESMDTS
UniProt Q15843, residues 1-76: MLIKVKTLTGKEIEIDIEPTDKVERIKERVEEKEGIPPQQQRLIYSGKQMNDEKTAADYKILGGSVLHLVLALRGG
UniProt P22314: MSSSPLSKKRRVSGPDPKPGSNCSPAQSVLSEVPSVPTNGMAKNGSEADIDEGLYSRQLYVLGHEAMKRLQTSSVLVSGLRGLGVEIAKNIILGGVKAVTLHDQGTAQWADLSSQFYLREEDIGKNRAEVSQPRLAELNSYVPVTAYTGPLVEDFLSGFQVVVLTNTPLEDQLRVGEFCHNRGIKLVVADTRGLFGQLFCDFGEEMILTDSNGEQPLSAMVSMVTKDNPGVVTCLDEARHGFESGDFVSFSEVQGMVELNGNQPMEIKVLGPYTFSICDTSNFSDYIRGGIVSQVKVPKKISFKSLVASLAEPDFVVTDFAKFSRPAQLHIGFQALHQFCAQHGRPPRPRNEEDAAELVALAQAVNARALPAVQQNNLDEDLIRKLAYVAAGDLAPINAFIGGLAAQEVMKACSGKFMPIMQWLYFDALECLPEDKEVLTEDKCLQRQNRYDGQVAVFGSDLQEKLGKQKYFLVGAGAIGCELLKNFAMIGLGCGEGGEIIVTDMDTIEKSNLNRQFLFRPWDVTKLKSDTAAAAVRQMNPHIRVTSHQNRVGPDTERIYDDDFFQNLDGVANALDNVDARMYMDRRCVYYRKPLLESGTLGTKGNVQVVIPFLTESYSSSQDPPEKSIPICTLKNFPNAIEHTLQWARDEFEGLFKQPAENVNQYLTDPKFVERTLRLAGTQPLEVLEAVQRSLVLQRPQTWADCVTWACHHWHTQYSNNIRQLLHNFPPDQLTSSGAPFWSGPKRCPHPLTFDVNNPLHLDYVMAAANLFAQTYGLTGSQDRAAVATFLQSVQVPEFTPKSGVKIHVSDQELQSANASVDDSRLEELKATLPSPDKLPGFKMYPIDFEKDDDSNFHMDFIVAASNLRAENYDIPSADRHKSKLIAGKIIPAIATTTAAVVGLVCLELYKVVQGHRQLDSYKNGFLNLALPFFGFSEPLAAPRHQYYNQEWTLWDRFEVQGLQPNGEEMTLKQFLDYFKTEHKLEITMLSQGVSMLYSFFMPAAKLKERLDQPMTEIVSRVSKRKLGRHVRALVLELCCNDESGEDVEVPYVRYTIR

T1: IBtkα-FLAG (human inhibitor of Bruton's tyrosine kinase isoform α, aa 1–1352) (human) (UniProt Q9P2D0)
T1 sequence: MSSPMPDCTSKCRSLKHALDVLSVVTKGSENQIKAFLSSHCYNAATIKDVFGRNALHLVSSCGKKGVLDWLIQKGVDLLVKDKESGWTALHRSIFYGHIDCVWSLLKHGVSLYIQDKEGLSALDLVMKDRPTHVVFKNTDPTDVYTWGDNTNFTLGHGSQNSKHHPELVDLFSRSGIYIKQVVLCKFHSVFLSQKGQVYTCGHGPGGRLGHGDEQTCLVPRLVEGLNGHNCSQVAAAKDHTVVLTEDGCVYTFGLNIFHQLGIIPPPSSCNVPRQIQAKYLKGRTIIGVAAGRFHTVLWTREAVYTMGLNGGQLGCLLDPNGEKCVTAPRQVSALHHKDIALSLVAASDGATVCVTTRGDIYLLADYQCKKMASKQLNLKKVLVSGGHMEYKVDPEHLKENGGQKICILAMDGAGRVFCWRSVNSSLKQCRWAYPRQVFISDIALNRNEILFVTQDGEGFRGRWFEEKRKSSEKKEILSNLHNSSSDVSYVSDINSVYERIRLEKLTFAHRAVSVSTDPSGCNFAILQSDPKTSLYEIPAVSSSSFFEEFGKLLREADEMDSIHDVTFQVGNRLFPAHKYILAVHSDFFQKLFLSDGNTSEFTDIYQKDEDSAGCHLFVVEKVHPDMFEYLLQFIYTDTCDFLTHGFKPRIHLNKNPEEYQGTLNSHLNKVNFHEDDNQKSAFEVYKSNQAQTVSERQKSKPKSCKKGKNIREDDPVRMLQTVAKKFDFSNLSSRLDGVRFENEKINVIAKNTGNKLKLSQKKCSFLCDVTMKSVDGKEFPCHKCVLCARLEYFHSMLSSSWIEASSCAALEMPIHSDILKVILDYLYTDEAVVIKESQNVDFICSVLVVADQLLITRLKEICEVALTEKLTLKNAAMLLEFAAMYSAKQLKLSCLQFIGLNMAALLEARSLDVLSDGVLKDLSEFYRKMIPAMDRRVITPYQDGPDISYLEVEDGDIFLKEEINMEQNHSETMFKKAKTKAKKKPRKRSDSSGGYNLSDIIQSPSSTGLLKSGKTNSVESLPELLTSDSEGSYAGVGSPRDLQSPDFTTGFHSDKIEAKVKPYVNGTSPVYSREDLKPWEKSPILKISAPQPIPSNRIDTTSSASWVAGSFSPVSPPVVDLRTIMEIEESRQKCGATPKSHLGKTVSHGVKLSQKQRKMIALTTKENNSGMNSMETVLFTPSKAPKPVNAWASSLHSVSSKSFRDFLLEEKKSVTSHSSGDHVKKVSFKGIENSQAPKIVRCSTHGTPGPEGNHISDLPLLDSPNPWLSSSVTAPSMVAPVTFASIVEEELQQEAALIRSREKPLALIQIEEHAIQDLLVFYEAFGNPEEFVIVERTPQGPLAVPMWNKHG


Target: T1, IBtkα-FLAG (human inhibitor of Bruton's tyrosine kinase isoform α, aa 1–1352) (human)
Experiment: affinity purification with mass spectrometry; HEK293T transfected with pCMV6-IBtkα-FLAG or empty vector; extracts (1.5 mg) immunoprecipitated with anti-FLAG antibody (20 μg), SDS-PAGE, in-gel tryptic digestion, nanoLC-MS/MS

Molecule	binding
COP9 signalosome complex subunit 2 (from UniProt P61201 1-443)	binds
COP9 signalosome complex subunit 3 (from UniProt Q9UNS2-2 1-403)	binds
COP9 signalosome complex subunit 4 (from UniProt Q9BT78 1-406)	binds
Cullin-associated NEDD8-dissociated protein 1 (from UniProt Q86VP6 1-1230)	binds
NEDD8 (from UniProt Q15843 1-76)	binds
Ubiquitin-like modifier-activating enzyme 1 (from UniProt P22314 1-1058)	binds
endogenous Pdcd4 (programmed cell death 4) (protein, UniProt Q53EL6 1-469) MDVENEQILNVNPADPDNLSDSLFSGDEENAGTEEIKNEINGNWISASSINEARINAKAKRRLRKNSSRDSGRGDSVSDSGSDALRSGLTVPTSPKGRLLDRRSRSGKGRGLPKKGGAGGKGVWGTPGQVYDVEEVDVKDPNYDDDQENCVYETVVLPLDERAFEKTLTPIIQEYFEHGDTNEVAEMLRDLNLGEMKSGVPVLAVSLALEGKASHREMTSKLLSDLCGTVMSTTDVEKSFDKLLKDLPELALDTPRAPQLVGQFIARAVGDGILCNTYIDSYKGTVDCVQARAALDKATVLLSMSKGGKRKDSVWGSGGGQQSVNHLVKEIDMLLKEYLLSGDISEAEHCLKELEVPHFHHELVYEAIIMVLESTGESTFKMILDLLKSLWKSSTITVDQMKRGYERIYNEIPDINLDVPHSYSVLERFVEECFQAGIISKQLRDLCPSRGRKRFVSEGDGGRLKPESY	binds
